In this test the target is recombinant His-SUMO-E2F1 (UniProt Q01094). Put plainly: ELISA. In general terms: In an ELISA, binding on a coated surface is turned into a signal by an enzyme label.

Sequences of proteins named here, by UniProt entry; tags and fusion partners are left off.
UniProt Q01094: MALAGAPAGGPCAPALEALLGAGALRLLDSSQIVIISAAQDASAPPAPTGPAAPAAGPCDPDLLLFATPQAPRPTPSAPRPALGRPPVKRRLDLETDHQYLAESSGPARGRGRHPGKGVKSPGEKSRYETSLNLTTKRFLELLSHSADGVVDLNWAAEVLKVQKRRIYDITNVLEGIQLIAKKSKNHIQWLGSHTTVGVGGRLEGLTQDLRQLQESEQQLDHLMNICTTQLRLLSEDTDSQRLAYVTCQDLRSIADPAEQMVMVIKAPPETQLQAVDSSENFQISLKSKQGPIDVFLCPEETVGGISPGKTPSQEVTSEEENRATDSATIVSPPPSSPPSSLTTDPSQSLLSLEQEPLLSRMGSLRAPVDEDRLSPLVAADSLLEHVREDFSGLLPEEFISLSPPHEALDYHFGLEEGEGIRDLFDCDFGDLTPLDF

These are yes or no findings as the source states them, for the method shown. Some binding calls cover weakened binding; strength is not graded here. Sequences can lack the tags named with a protein.

B1: recombinant glutathione S-transferase (GST) tagged SETD6 (enzyme, UniProt Q8TBK2 1-473)
chain: MATQAKRPRVAGPVDGGDLDPVACFLSWCRRVGLELSPKVSERAGGRRTRGGARAALTSPPAQVAVSRQGTVAGYGMVARESVQAGELLFVVPRAALLSQHTCSIGGLLERERVALQSQSGWVPLLLALLHELQAPASRWRPYFALWPELGRLEHPMFWPEEERRCLLQGTGVPEAVEKDLANIRSEYQSIVLPFMEAHPDLFSLRVRSLELYHQLVALVMAYSFQEPLEEEEDEKEPNSPVMVPAADILNHLANHNANLEYSANCLRMVATQPIPKGHEIFNTYGQMANWQLIHMYGFVEPYPDNTDDTADIQMVTVREAALQGTKTEAERHLVYERWDFLCKLEMVGEEGAFVIGREEVLTEEELTTTLKVLCMPAEEFRELKDQDGGGDDKREEGSLTITNIPKLKASWRQLLQNSVLLTLQTYATDLKTDQGLLSNKEVYAKLSWREQQALQVRYGQKMILHQLLELTS
As to B1, the binding entry was “binds”.
